## Library screening results

Amino acid sequences for entries named in this document (tags omitted).
UniProt E9BF75, entry or part of it: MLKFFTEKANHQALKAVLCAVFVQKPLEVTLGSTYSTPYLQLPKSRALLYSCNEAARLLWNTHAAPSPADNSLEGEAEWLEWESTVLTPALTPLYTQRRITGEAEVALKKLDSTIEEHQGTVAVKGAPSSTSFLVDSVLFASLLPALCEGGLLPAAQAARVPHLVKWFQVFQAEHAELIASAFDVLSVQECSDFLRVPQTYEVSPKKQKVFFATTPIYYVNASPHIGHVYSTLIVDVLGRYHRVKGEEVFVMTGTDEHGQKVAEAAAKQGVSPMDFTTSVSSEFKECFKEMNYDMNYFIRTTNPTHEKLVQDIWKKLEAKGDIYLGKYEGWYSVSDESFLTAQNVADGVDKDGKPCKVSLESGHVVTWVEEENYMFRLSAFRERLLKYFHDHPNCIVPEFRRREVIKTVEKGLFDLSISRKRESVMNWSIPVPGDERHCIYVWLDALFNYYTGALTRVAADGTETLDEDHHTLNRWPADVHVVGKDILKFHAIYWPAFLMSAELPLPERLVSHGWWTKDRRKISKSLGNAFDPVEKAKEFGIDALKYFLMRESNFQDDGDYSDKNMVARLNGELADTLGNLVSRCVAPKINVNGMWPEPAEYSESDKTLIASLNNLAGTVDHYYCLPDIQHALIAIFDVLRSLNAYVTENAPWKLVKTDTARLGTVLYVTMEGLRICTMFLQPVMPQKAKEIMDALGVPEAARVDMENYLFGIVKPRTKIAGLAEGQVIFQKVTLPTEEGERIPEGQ

Mtb heat-shock: 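Assay on Mycobacterium tuberculosis, filed only as a heat shock assay from Cornell; the read-out is not stated. The concentration is filed as 10 mM, unlikely as a test dose, so the dose is not known. Higher reads as stronger inhibition (inferred: compounds with an IC50 in retests scored well above the rest). Size under these conditions: about 69,000 compounds, about 930 of them at 50% or above in at least one test.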
Mtb growth Cornell: 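Whole-cell assay for inhibitors of Mycobacterium tuberculosis growth, labelled Cornell in the record; the read-out is not stated. The concentration is filed as 10 mM, unlikely as a test dose, so the dose is not known. Higher means stronger inhibition (inferred from two other growth screens of the library). Size under these conditions: about 53,000 compounds, about 900 of them at 50% or above in at least one test.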
LdMetRS: 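Methionyl-tRNA synthetase (putative), Leishmania donovani (UniProt E9BF75). Primary screen of methionyl-tRNA synthetase; the read-out is not stated. The test concentration is not given. The values are filed as inhibition. Of about 68,000 compounds tested this way, about 24 (0.035%) reached 50% or more in at least one test.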

All values are in %.
How 0% and 100% were set is not recorded. Most values in the screen are low, and negative values occur.
Compounds were drawn at random from those tested, without regard to their results.
A dash means the value is not listed here; it may have been measured.

SMILES,Mtb heat-shock,Mtb growth Cornell,LdMetRS
O=C(Cc1ccccc1)NCc1ncc(-c2ccccc2C(=O)O)cn1,-2.157%,23.42%,8.385%
Cc1c(NC(=O)N(C)CCn2cnnc2)cccc1OC1CCCC1,-15.88%,8.767%,12.01%
Cc1ccc(S(=O)(=O)NCCCN2CCC(O)CC2)c(F)c1,-10.69%,-,4.969%
CCOCCN1CCN(CC(O)c2ccc(C)c(C)c2)CC1 (centres unmarked),-3.219%,10.41%,15.82%
Cc1noc(C)c1CSc1nc(=O)ccn1C(C)C,-9.204%,-8.72%,18.75%
O=C1CC(c2ccncc2)C2(CCN(CCc3ccccc3)CC2)N1 (centres unmarked),-,-,6.536%
O=C(CCn1ccccc1=O)Nc1ccc(I)cc1,-5.728%,21.65%,3.346%
Cc1ccc(S(=O)(=O)NCCCN2CCC(O)CC2)cc1Cl,-10.89%,-,9.938%
CNC(=O)c1cc(OC)c(OC)cc1N(C)S(C)(=O)=O,-12.04%,10.85%,6.03%
Cc1cccc2c1nc1n2[C@@H](CNC(=O)CCC(=O)O)COC1,-5.126%,21.38%,11.19%
COCCN1CC[C@@H]2O[C@H](COCc3csc(C)n3)CC[C@@H]21,-,-,15.56%
CC(CC#N)N1CCN(C(=O)OC(C)(C)C)CC1 (centres unmarked),-4.536%,8.699%,12.4%
Cc1nc(C)c(C(=O)N2CCc3ccc(F)cc3C2C)o1 (centres unmarked),-43.93%,37.91%,11.45%
Cc1ccccc1OCCC(=O)NC(C)c1nnc2n1CCCCC2 (centres unmarked),-9.676%,-,16.26%
CC(C)(CO)NCc1ccc(OCc2ccc3c(c2)OCCO3)cc1.Cl,-22.54%,-6.906%,-
Cn1cccc1C(=O)N1CCC2(CC1)CN(c1ccsc1)C(=O)CO2,-5.484%,-19.82%,9.453%
CCn1c(CN2CCCC(O)(c3ccc(F)cc3)CC2)cnc1SC (centres unmarked),-,-,9.346%
O=C(O)C1(Cc2ccc(F)cc2)CCCN(Cc2ccncc2)C1 (centres unmarked),4.66%,-,11.34%
N#Cc1ccc(NC2CCN(c3ncccn3)CC2)cc1Cl,-23.07%,33.47%,15.72%
COc1ccc(C2CCN(C(=O)c3ncccc3OC(C)C)C2)cc1 (centres unmarked),-3.185%,-23%,14.8%
COC[C@@H]1CCC[C@@]12CN(C(=O)N1CCCC1)CCO2,47.71%,-6.805%,11.73%
COCCN1CC(C(=O)N(C)Cc2ccc(Cl)s2)CC1=O (centres unmarked),-18.91%,-,4.83%
CN1C(=O)COc2ccc(C(=O)Cn3cnc4ccccc4c3=O)cc21,-3.983%,0.7582%,15.45%
CS(=O)(=O)N1CCC(C(=O)N2CCC(Cn3cccn3)CC2)CC1,21.65%,-32.31%,5.072%
[H][C@@]12C[C@H](C(=O)NC3CCC3)C[C@@]1([H])OCCN2,-16.8%,-7.764%,-
CCn1nc2c(cc1=O)CN(CC(=O)Nc1nncs1)CC2,1.517%,-,7.955%
COCCNC(=O)N1CCN(C(C)C(=O)NC2CCCC2)CC1 (centres unmarked),5.266%,14.32%,10.86%
COCCC(=O)NCc1cccnc1-n1cnc2ccccc21,-16.99%,-,9.341%
CC(C)CN1CCCn2nc(CNC(=O)OCc3ccccc3)cc2C1,-19.77%,23.94%,11.64%
Cn1cccc1C(=O)N1CCCCC12CC(=O)N(c1cccnc1)C2 (centres unmarked),-,-,18.57%
Cc1cc(C)cc(NC(=O)Cc2c(C)nc3c(c2C)c(=O)[nH]n3C)c1,-16.68%,-12.81%,12.94%
O=C(Cc1c[nH]c2ncccc12)NCC(O)c1ccsc1 (centres unmarked),4.034%,12.78%,14.74%
COCCN1CCC(CNC(=O)C2(c3ccc(F)cc3)CCC2)CC1,-2.717%,11.31%,12.01%
CCOc1ncccc1NC(=O)Nc1c(C)nn(C(C)C)c1C,5.726%,-,13.17%
Cc1noc([C@]23COC[C@H]2CN(C(C)C)C3)n1,-,-,8.271%
CCN(CCS(=O)(=O)c1ccc(Cl)cc1)Cc1ccc(OC)c(OC)c1,-27.13%,-,6.183%
Cc1occc1C(=O)N1Cc2nccn2CC(CN2CCCC2)C1 (centres unmarked),-,-,13.19%
CCc1ccc(CN2Cc3nccn3CC(CN3CCOCC3)C2)o1 (centres unmarked),-,-,11.33%
O=C(O)C(F)(F)F.[H][C@]12CCN(C(=O)c3ccno3)[C@@]1([H])CC[C@H](COCCN1CCCC1)O2,-5.47%,14.48%,-
Cc1nn2c(N3CCC(C#N)CC3)cc(-c3ccccc3)nc2c1C,-15.19%,0.4856%,11.35%
COc1cccc(N2CCN(C(=O)CCO)CC2=O)c1,4.553%,33.06%,4.178%
COCCN1CCC2(CC1)CN(C(=O)c1ccccc1)CCO2,-,-,6.162%

The last 5 entries again:

CCc1ccc(CN2Cc3nccn3CC(CN3CCOCC3)C2)o1 (centres unmarked) gave LdMetRS: 11.33%.
O=C(O)C(F)(F)F.[H][C@]12CCN(C(=O)c3ccno3)[C@@]1([H])CC[C@H](COCCN1CCCC1)O2 gave Mtb heat-shock: -5.47%; Mtb growth Cornell: 14.48%.
Cc1nn2c(N3CCC(C#N)CC3)cc(-c3ccccc3)nc2c1C gave Mtb heat-shock: -15.19%; Mtb growth Cornell: 0.4856%; LdMetRS: 11.35%.
COc1cccc(N2CCN(C(=O)CCO)CC2=O)c1 gave Mtb heat-shock: 4.553%; Mtb growth Cornell: 33.06%; LdMetRS: 4.178%.
COCCN1CCC2(CC1)CN(C(=O)c1ccccc1)CCO2 gave LdMetRS: 6.162%.

Data taken from ChEMBL document CHEMBL3988442, “University of Dundee, Small-Polar-MMV Screening Library” (2021).